Four molecules from article PMC10645843, “Fungal secondary metabolism is governed by an RNA-binding protein CsdA/RsdA complex” (Nature Communications, 2023) can be followed below.

For experiment [1], the target named is T1, RsdA-His (PFICI_10532), recombinant (Pestalotiopsis fici, UniProt W3WX91 1-730).
T1 construct: RsdA, regulator of secondary metabolism and development, Pestalotiopsis fici, locus PFICI_10532; open reading frame amplified from P. fici cDNA; RsdA-His printed as 80.4 kDa; Printed as RsdA-His; vector pET28a (His6-tag); also called PfRsdA; RsdA-His protein; source: E. coli BL21 (plasmid pYZS42, pET28a), purified (Ni-NTA resin)
T1 sequence (looked up): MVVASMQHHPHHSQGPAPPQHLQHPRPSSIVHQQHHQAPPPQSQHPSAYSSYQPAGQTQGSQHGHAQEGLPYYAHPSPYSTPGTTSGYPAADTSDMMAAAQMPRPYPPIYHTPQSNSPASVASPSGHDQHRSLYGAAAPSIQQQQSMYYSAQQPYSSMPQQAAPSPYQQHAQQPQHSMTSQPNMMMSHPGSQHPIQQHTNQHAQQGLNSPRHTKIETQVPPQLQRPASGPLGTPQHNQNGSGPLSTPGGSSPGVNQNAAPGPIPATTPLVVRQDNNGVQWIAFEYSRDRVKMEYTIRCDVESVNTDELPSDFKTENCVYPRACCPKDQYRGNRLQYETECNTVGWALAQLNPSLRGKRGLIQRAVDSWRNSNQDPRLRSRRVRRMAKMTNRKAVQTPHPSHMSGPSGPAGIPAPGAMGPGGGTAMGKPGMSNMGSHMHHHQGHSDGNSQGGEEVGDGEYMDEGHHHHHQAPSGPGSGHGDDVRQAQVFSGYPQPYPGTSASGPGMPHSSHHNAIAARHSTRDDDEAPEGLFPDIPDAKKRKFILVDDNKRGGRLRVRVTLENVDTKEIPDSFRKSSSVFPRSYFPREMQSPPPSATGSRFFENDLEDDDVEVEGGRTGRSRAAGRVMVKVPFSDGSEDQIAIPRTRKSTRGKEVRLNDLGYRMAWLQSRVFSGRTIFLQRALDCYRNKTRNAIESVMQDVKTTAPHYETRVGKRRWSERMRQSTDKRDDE
Put plainly: pull-down; His pull-down: RsdA-His (or RsdA^ΔC-terminal-His) held on Ni-NTA resin, purified GST-CsdA or its deletion forms added, overnight at 4 °C; binding buffer 50 mM Tris, 250 mM NaCl, 0.2% glycerol, 5 mM DTT, 0.6% Triton X-100, 1 mM PMSF, pH 7.5; wash with 1% Triton X-100; western blot with anti-His and anti-GST; both purified. A general note: A western blot detects proteins with antibodies after separation by electrophoresis.

The target of experiment [2] is RsdA^ΔC-terminal-His (Pestalotiopsis fici). The experiment is described as above.

These are yes or no findings as the source states them, for the method shown. For some of these results: A result given as binding can be weak or reduced; the word gives no strength. Where a sequence is shown, tags or fusion partners need not be part of it.

Consider GST-CsdA^ΔZnF (from UniProt W3WSJ8), for which, in experiment [1], the binding result is on record as “binds weakly”.
As to “GST-CsdA^ΔN-terminal (Pestalotiopsis fici) (domain or fragment)”, the binding entry in experiment [1] is “no binding”.
On the same count and under the same terms, the same measure for GST-CsdA^ΔRRM (from UniProt W3WSJ8): “binds weakly”.

B1: GST-CsdA (PFICI_10709), recombinant (natural protein, Pestalotiopsis fici, UniProt W3WSJ8 1-634, looked up)
chain: MSTVPPQPPHFDRYVVIHVATTCDEHGVYVTKDSAEVIELGWIELDAKSLEELHRESVLVKPINTPITPLCTSLTTLTWEHVRNAGTFRDAINRFDAFASEHLTNQNLDFVFVTLDAWDLRVQLPREARDKAVVLPPYLQHSRTFDLRTEYQRWQQHHPESLPFGPSMLSNICAALEVEPVQSSAPIKHNLPFHLQALAPASPRRAMEEAITLARVLRGLIRKSQPAHEHPDVLTRPMDARADVRAFLSERSKVLHMSGLPHDTTQSELESWFTQFGGRPIAFWTLRTPEQHKPTGTGFAVFSSHEEAAESLCMNGRALNEKAIEVSPSSSRVLDRAAEILTPFPPSKNRPRPGDWTCPSCGFSNFQRRTACFRCSFPAVGAGGPQNEMSSYGGGGGGSGGYGYGAPPMMPPPHHGGHHHHHGGMGHGGGRMGGSGVVPFRAGDWKCGNEVCGYHNFAKNVCCLRCGASRAGAAVVADSGYPSPMDSGSNYGMGSHSVGGTPGPGPYASAGGPFGGAGGGYGQHFGGPPSTYALPSGIGGGAAPYPSALNTHIGGPAPGSHSAGPFDSRAAEAAFQSAGNGPASAGPSNNFFGSQAENDPFAFLSTGIGGLTVSGDARQNGSGAGGPQSKSPAA
notes: open reading frame amplified from P. fici cDNA; CsdA said to contain 730 amino acids; GST-CsdA printed as 93.6 kDa; Printed as GST-CsdA; vector pGEX-4T (GST-tag); also called PfCsdA; GST-CsdA protein; source: E. coli BL21 (plasmid pYSZL6, pGEX-4T), purified (GST-tag resin)
On to B1, for which the binding result in experiment [2] was “no binding”.
